Experimental data: PubChem BioAssay AID2417 (National Center for Advancing Translational Sciences (NCATS), 2010)
Screen size: about 140,000 compounds; about 4,300 (3.1%) were called active. Inconclusive means that the source gave no clear call. Such entries were picked first, then a sample of the others.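 The calls were made as follows: active = readout at or below -70, meaning at least 70% loss of cells showing the perinucleolar compartment, a nuclear body marking cancer cells; inconclusive = readout between -30 and a set limit; inactive = the rest.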

Experiment: High Content Assay for Compounds that inhibit the Assembly of the Perinucleolar Compartment;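 also: plate controls were DMSO wells for no effect and camptothecin positive control wells for full effect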
Settings: PC3M PTB-GFP, PNC prevalence imaging, 16 h; at 10 µM; stronger effect = lower value
How it was run: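 PC3M cells stably expressing PTB-GFP, 750–1000 cells/well, treated 16 h at 37 °C with compound (23 nl of library stock), in duplicate. After paraformaldehyde fixation and Hoechst stain, imaged at 20x; PNC prevalence scored by image analysis.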

SMILES	activity change (PNC), negative = inhibition
Fc1ccc(CNCc2cccc(Br)c2)cc1	inconclusive: -51.4%
O=C(CSc1nnc(-c2ccncc2)o1)NCc1ccc(Cl)cc1	inconclusive: -32.9%
CCc1sc(NC(=O)c2cc3ccccc3oc2=O)nc1-c1cccs1	inactive: 50.7%
Clc1ccc(/C=N/NC2=Nc3cccc4cccc2c34)cc1	inactive: 19.1%
CCOC(=O)N1CCN(C(=O)c2cc3c(=O)[nH]c4ccccc4c3s2)CC1	active: -119%
c1ccc2c(CSCc3nc4ccccc4[nH]3)cccc2c1	inconclusive: -35.4%
CCc1nc(N2CCCC(C)C2)c2oc3ccccc3c2n1 (configuration not stated)	inconclusive: -39.6%
CCOc1cc(C(=O)N2CCN(c3ccccc3)CC2)cc(OCC)c1OCC	inconclusive: -65.8%
Cc1c(NC(=O)Nc2ccccc2Cl)sc(=S)n1C	active: -119%
Cc1cc(C2C(=O)CC(=O)CC2c2ccccc2)on1 (configuration not stated)	inactive: -16.6%
CCOC(=O)c1sc2cccc(F)c2c1N	inconclusive: -72%
O=C(/C=C/c1ccc(Cl)cc1)Nc1ccc(N2CCCCC2)cc1	inactive: 12.5%
COc1ccccc1/C=C/CN1CC(C)OC(C)C1 (configuration not stated)	inactive: -6.61%
Cc1ccc(-c2nnc3sc(C4COc5ccccc5O4)nn23)cc1 (configuration not stated)	inactive: -26%
O=C1C2CCCN2C(c2cccs2)N1c1ccc(Cl)cc1 (configuration not stated)	inconclusive: -69%
CCOCC(=O)Nc1ccc(S(=O)(=O)N2CCOCC2)cc1	inactive: -27.7%
CC12CCC(C(=O)Nc3cccc(Cl)c3)(C(Br)C1=O)C2(C)C (configuration not stated)	inconclusive: -46.1%
CC1CCN(C(=O)COc2ccccc2F)CC1	inactive: 28.9%
O=S(=O)(NC1CCCCC1)c1ccc(Br)cc1	inactive: 9.11%
Cc1ccc(-c2cc(C(F)F)n3ncc(C(=O)N4CCN(c5cccc(C)c5C)CC4)c3n2)cc1	inactive: -20.3%
COc1ccc(-c2cc(=O)oc3cc(OCc4nn[nH]n4)ccc23)cc1	inactive: 26.1%
O=C1CCCN1c1ccc(S(=O)(=O)Nc2ccc3c(c2)OCCO3)cc1	inconclusive: -53.5%
N#CC1=C(N)C(C#N)(C#N)[C@H](c2ccncc2)[C@H]2CC3(CC=C12)OCCO3	active: -97.8%
Cc1cc(C[n+]2ccccc2)c2nsnc2c1	inconclusive: -73.9%
Cc1ccc(C)c(NS(=O)(=O)c2cc(C(=O)NCc3ccco3)ccc2C)c1	inconclusive: -49.8%
CCOC(=O)CCC(=O)N1CCOCCOCCN(C(=O)CCC(=O)OCC)CCOCCOCC1	inconclusive: -35.4%
CC(C)NC(=O)c1cc2c(s1)CCCC2	inactive: -14.2%

Taken from the listing (2 entries):
SMILES	activity change (PNC), negative = inhibition
O=C1C2CCCN2C(c2cccs2)N1c1ccc(Cl)cc1 (configuration not stated)	inconclusive: -69%
CCOCC(=O)Nc1ccc(S(=O)(=O)N2CCOCC2)cc1	inactive: -27.7%
